# Some of the results follow. Most values lie at the level of the controls, where differences are scatter.
# Protein sequences, listed by entry. Tags and fused reporters are not part of them. Lines headed by an entry give the natural chain unless they say otherwise; changes in a name come on top.
# UniProt Q9H6S3: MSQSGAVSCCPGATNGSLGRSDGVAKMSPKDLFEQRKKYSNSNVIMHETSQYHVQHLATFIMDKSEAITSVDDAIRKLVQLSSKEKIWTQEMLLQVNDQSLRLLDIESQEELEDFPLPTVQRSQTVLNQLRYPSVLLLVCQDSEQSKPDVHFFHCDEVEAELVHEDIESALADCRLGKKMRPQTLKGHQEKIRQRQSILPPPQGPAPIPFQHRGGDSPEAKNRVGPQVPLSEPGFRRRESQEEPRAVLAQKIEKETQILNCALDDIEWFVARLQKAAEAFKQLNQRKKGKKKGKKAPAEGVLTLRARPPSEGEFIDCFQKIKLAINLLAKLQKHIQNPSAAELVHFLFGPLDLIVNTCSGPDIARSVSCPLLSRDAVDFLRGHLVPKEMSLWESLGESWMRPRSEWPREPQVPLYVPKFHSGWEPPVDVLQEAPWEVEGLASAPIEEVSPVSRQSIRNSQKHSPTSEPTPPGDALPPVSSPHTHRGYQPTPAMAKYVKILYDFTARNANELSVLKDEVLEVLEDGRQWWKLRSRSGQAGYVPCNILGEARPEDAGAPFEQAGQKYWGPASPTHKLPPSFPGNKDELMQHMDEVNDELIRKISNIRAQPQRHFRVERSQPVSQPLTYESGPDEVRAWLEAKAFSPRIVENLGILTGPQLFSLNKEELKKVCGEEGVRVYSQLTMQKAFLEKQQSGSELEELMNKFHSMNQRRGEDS
# UniProt Q9H1J1: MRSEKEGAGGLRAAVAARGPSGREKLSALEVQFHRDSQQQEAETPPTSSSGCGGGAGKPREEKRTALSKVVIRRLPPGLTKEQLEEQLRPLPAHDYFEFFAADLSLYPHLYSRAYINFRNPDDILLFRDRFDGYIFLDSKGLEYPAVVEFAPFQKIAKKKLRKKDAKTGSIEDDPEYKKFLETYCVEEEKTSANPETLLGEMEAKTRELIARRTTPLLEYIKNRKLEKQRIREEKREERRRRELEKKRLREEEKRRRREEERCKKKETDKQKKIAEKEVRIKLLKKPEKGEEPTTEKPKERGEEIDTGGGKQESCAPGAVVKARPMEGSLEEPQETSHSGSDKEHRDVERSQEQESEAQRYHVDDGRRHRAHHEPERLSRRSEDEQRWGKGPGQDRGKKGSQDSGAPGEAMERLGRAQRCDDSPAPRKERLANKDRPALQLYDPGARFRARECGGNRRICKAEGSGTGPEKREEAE
# UniProt Q9H8W3: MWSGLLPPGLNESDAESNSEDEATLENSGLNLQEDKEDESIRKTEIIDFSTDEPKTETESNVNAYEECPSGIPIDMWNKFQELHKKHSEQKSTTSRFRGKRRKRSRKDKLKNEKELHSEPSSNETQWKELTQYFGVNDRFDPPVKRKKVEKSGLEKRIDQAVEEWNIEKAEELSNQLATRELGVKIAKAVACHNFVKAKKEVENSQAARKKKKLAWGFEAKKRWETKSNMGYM
# UniProt Q9H7N4: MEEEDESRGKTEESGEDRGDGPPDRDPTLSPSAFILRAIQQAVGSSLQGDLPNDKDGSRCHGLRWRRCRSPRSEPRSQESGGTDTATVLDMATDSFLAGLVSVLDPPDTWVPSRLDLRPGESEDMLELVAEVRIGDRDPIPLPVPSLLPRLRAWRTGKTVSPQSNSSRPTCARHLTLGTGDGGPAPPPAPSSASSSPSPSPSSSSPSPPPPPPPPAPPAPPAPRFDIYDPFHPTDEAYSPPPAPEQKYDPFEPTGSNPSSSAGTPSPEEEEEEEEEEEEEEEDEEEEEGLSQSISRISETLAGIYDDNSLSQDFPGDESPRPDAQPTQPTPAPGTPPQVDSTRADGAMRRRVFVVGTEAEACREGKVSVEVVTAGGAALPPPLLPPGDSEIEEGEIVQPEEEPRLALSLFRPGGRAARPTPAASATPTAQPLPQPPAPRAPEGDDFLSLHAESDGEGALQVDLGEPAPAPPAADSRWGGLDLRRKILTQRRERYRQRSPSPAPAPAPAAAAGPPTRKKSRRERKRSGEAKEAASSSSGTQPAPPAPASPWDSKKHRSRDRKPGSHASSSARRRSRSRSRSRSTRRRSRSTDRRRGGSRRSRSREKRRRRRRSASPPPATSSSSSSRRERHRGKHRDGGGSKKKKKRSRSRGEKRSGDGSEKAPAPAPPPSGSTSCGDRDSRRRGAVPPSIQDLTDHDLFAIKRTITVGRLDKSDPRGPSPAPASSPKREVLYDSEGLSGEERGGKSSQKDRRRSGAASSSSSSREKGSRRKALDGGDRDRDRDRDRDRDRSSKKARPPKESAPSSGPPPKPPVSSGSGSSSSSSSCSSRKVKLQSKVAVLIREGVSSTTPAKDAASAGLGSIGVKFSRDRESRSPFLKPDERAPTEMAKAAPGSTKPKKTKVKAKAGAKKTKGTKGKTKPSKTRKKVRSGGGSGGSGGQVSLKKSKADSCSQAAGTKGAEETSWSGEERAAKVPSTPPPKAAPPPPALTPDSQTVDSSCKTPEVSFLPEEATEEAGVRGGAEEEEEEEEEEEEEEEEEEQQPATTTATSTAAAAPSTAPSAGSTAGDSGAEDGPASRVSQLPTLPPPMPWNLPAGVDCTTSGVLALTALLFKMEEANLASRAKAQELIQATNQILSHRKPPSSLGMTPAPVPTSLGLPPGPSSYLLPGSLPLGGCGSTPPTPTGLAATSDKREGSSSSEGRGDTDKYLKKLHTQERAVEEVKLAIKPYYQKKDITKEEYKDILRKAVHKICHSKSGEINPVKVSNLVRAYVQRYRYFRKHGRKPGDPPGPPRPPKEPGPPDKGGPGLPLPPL
# UniProt Q9H8V3: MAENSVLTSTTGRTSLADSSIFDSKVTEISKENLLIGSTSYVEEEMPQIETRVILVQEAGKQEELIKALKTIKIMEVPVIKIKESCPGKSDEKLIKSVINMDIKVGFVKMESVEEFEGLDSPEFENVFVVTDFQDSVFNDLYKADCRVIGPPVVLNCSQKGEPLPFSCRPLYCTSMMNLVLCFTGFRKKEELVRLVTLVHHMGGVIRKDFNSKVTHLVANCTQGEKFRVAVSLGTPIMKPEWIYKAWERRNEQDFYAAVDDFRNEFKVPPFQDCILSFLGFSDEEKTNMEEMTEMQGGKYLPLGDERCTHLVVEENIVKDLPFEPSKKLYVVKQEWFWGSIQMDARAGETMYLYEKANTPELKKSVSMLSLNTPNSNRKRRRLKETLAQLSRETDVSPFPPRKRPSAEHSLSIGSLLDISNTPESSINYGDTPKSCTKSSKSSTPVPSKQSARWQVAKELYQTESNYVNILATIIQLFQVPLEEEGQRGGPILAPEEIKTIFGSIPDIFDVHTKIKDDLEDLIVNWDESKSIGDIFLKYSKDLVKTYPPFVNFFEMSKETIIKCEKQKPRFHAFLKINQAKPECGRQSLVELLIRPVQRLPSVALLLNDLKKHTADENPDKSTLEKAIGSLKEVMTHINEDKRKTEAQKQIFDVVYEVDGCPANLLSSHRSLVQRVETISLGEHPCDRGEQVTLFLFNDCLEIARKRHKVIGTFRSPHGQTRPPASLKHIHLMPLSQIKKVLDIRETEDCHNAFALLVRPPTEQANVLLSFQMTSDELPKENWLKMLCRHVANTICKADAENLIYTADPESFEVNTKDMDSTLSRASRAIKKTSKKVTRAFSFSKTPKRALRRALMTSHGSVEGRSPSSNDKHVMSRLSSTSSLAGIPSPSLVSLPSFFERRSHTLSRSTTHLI
# UniProt Q9H4M7: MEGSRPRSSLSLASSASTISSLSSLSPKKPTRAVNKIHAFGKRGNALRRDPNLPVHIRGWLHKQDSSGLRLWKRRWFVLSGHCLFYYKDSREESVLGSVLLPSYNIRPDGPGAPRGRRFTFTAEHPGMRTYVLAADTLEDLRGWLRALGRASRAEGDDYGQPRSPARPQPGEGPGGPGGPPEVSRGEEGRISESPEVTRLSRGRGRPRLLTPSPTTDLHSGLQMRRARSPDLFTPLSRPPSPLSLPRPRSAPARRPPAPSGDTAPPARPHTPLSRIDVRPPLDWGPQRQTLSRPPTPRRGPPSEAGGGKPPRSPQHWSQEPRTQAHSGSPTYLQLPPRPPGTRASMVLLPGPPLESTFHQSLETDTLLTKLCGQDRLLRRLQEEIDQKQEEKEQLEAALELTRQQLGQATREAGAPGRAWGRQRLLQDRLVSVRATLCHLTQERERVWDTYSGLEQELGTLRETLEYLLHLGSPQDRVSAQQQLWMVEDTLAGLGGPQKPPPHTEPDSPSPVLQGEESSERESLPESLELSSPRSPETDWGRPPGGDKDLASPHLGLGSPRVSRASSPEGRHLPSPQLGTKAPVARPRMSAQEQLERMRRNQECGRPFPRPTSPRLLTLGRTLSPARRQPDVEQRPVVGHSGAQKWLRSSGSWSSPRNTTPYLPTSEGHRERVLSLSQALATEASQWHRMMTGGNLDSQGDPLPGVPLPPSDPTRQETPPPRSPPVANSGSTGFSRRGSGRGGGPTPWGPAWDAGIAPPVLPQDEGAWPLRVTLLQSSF
# UniProt Q9H6A9: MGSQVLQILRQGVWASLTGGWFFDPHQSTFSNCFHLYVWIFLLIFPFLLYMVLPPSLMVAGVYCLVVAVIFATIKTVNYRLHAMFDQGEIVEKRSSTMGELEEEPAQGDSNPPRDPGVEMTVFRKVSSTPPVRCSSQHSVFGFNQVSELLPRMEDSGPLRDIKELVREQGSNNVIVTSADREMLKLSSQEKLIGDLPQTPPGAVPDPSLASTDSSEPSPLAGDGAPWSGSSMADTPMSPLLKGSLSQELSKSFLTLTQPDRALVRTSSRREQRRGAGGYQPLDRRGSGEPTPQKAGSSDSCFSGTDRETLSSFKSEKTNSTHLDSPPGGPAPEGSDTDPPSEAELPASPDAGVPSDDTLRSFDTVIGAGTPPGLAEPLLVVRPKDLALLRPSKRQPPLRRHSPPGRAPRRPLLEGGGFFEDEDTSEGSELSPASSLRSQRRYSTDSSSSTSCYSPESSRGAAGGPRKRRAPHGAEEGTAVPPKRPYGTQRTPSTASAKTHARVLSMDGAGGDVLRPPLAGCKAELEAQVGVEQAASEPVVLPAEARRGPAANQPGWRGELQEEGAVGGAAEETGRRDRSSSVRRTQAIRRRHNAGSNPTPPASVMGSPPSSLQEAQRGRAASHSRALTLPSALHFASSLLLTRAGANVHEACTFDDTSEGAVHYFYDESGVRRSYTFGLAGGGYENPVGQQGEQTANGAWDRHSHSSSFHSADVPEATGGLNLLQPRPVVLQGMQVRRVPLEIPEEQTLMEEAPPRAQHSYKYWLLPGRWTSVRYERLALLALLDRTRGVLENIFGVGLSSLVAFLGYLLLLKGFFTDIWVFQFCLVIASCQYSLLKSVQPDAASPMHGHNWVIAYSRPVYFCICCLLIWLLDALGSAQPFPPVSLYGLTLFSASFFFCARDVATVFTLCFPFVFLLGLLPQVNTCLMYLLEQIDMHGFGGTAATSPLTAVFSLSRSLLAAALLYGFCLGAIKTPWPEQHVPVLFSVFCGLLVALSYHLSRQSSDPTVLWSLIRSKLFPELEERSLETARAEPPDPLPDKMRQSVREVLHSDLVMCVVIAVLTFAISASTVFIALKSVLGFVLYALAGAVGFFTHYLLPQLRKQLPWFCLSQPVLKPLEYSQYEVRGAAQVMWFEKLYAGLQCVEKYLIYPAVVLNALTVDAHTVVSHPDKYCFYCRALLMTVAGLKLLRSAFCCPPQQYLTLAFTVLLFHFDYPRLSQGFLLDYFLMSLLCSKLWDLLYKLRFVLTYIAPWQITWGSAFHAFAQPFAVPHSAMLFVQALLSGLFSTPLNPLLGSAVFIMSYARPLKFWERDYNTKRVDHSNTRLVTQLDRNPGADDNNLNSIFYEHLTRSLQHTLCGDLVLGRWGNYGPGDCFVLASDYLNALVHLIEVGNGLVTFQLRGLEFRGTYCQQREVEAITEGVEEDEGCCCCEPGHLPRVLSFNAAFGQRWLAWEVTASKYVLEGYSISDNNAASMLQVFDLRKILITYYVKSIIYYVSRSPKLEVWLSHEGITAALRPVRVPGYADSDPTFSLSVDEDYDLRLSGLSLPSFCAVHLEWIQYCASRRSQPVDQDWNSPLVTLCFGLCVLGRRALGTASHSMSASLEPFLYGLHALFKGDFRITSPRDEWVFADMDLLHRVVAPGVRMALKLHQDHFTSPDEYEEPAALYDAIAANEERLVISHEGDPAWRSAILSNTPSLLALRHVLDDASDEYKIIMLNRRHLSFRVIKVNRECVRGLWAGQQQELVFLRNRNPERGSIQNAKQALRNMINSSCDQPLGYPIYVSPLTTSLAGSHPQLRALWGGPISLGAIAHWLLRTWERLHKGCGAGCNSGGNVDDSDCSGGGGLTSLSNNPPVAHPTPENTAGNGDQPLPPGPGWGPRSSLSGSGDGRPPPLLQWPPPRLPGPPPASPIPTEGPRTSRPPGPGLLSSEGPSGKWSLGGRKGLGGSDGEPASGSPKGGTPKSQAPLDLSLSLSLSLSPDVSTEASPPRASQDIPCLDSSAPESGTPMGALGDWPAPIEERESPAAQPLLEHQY
# Compound: Cc1nc(Nc2ncc(C(=O)Nc3c(C)cccc3Cl)s2)cc(N2CCN(CCO)CC2)n1 [dasatinib]
# Assay: log2 fold change of tryptic peptide abundance, ligand vs vehicle (limited proteolysis) (log2 ratio); higher = more trypsin-susceptible (destabilized)
# Settings: ligand concentration: 5 uM; sample: K562 cleared lysate
row,Target,log2 fold change
1,"ANKZF1 (peptide sequence: EALGQNEESPK, peptide start residue: 390) (UniProt Q9H8Y5)",-0.414
2,"EPS8L2 (peptide sequence: KAPAEGVLTLR, peptide start residue: 295) (UniProt Q9H6S3)",-0.169
3,"CACYBP (peptide sequence: WDYLTQVEKECK, peptide start residue: 163) (UniProt Q9HB71)",-0.13
4,"UPF3A (peptide sequence: KGSQDSGAPGEAMER, peptide start residue: 399) (UniProt Q9H1J1)",-0.411
5,"BLZF1 (peptide sequence: KIPSTVEFCSTPAEK, peptide start residue: 321) (UniProt Q9H2G9)",-0.327
6,"UniProt Q9H993 (peptide sequence: LRNELQTDKPFIPLVEK, peptide start residue: 65)",-0.0644
7,"MFSD1 (peptide sequence: ALLAGGPDEADR, peptide start residue: 10) (UniProt Q9H3U5)",0.00735
8,"UniProt Q9H8K7 (peptide sequence: SSSTPFPFR, peptide start residue: 252)",-0.148
9,"UniProt Q9H8W3 (peptide sequence: ELTQYFGVNDRFDPPVKR, peptide start residue: 129)",-0.147
10,"SCAF1 (peptide sequence: ALDGGDRDR, peptide start residue: 772) (UniProt Q9H7N4)",-0.741
11,"DHX33 (peptide sequence: FDDVTSEDTR, peptide start residue: 157) (UniProt Q9H6R0)",0.201
12,"UniProt Q9HAF1 (peptide sequence: ELAELVKR, peptide start residue: 18)",-0.42
13,"GBA2 (peptide sequence: YYNYDSSSRPQSR, peptide start residue: 735) (UniProt Q9HCG7)",-0.00762
14,"EPC1 (peptide sequence: AVTILEMIK, peptide start residue: 244) (UniProt Q9H2F5)",0.555
15,"UniProt Q9H7Z6 (peptide sequence: YLSELAEQPERK, peptide start residue: 126)",0.113
16,"ECT2 (peptide sequence: ALMTSHGSVEGR, peptide start residue: 854) (UniProt Q9H8V3)",-0.609
17,"EHD1 (peptide sequence: EMPNVFGKESK, peptide start residue: 317) (UniProt Q9H4M9)",0.298
18,"UniProt Q9H7Z3 (peptide sequence: NVFHLVMPLFSGKEK, peptide start residue: 715)",-0.728
19,"UniProt Q9H5V7 (peptide sequence: YCNYASK, peptide start residue: 86)",-0.428

# Some of the entries above in a different format:
row	Target	log2 fold change
8	UniProt Q9H8K7 (peptide sequence: SSSTPFPFR, peptide start residue: 252)	-0.148
9	UniProt Q9H8W3 (peptide sequence: ELTQYFGVNDRFDPPVKR, peptide start residue: 129)	-0.147

# Carrying on:

row,Target,log2 fold change
1,"UniProt Q9H4M7 (peptide sequence: RGPPSEAGGGKPPR, peptide start residue: 299)",-0.41
2,"UniProt Q9H2K2 (peptide sequence: DNWNYTPLHEAAIK, peptide start residue: 279)",0.605
3,"PDCL3 (peptide sequence: DYVQEVTK, peptide start residue: 101) (UniProt Q9H2J4)",-0.126
4,"TNRC6C (peptide sequence: TITNLQQQIQQHQR, peptide start residue: 1191) (UniProt Q9HCJ0)",0.407
5,"ESF1 (peptide sequence: IVEHQNLSKK, peptide start residue: 728) (UniProt Q9H501)",0.815
6,"RAB3GAP2 (peptide sequence: KQALESILASERLPFSCLR, peptide start residue: 592) (UniProt Q9H2M9)",-0.168
7,"GAN (peptide sequence: NILAAASPYIR, peptide start residue: 46) (UniProt Q9H2C0)",-0.146
8,"UniProt Q9HCE3 (peptide sequence: HLFIVHK, peptide start residue: 1171)",-0.279
9,"CCSER2 (peptide sequence: HTSGNNLVSPDTDYR, peptide start residue: 480) (UniProt Q9H7U1)",0.215
10,"PRKRIP1 (peptide sequence: MSEWAPRPPPEFVR, peptide start residue: 52) (UniProt Q9H875)",0.135
11,"PARVB (peptide sequence: ARPEDVVNLDLK, peptide start residue: 336) (UniProt Q9HBI1)",-0.74
12,"RNF41 (peptide sequence: SVVQQQQTR, peptide start residue: 140) (UniProt Q9H4P4)",-0.192
13,"NCOA5 (peptide sequence: DDSYFDRYR, peptide start residue: 141) (UniProt Q9HCD5)",-0.568
14,"ZNF106 (peptide sequence: QKESELQMTSAASPHPGLLLDLK, peptide start residue: 649) (UniProt Q9H2Y7)",0.544
15,"ACTR5 (peptide sequence: LSIAVEQAK, peptide start residue: 364) (UniProt Q9H9F9)",0.214
16,"CCDC134 (peptide sequence: ALREEEKR, peptide start residue: 199) (UniProt Q9H6E4)",0.611
17,"WDR41 (peptide sequence: WLIGGGREPQGLAEK, peptide start residue: 4) (UniProt Q9HAD4)",-0.417
18,"UniProt Q9H6A9 (peptide sequence: GELQEEGAVGGAAEETGRR, peptide start residue: 558)",0.137
19,"TFB2M (peptide sequence: SKDCAYK, peptide start residue: 380) (UniProt Q9H5Q4)",-0.368

# — the supplement of paper PMC12819154, “High-throughput peptide-centric local stability assay extends protein–ligand identification to membrane proteins, tissues and bacteria” (Nature Structural & Molecular Biology, 2025)
